Experimental data: US7297515 (MYRIAD GENETICS, dated 2007)

Target: T1, zinc finger protein 202, alt. transcript beta (ZNF202b), bait fragment amino acids 1-398 (human, UniProt P04386 1-147; O95125 1-398)
T1 construct: also called ZNF202beta; ZNF202 m1
Test: yeast two-hybrid search, bait ZNF202 1-398
Excerpt: The new construct was selected directly in the yeast strain PNY200 for its ability to drive tryptophane synthesis (genotype of this strain: MATα trp1-901 leu2-3, 112 ura3-52 his3-200 ade2 gal4Δ gal80). In these yeast cells, the bait was produced as a C-terminal fusion protein with the DNA binding domain of the transcription factor Gal4 (amino acids 1 to 147). Prey libraries were transformed into the yeast strain BK100 (genotype of this strain: MATa trp1-901 leu2-3,112 ura3-52 his3-200 gal4Δ gal80 LYS2::GAL-HIS3 GAL2-ADE2 met2::GAL7-lacZ), and selected for the ability to drive leucine synthesis. In these yeast cells, each cDNA was expressed as a fusion protein with the transcription activation domain of the transcription factor Gal4 (amino acids 768 to 881) and a 9 amino acid hemagglutinin epitope tag. PNY200 cells (MATα mating type), expressing the bait, were then mated with BK100 cells (MATa mating type), expressing prey proteins from a prey library. The resulting diploid yeast cells expressing proteins interacting with the bait protein were selected for the ability to synthesize tryptophan, leucine, histidine, and adenine. […]

B1: novel protein PN1851, fragment residues 14-369 (other, not shown: small tags and cut ends)
chain: ANFNQSGNIADSSLSFTFTNSSNGPNLITTQTNSQALSQPIASSNVHDNFMNNEITASKIDDGNNSKPLSPGWTDQTAYNAFGITTGMFNTTTMDDVYNYLFDDEDTPPNPKKEQPEPEELLIVKLEEDSWGSESKLWEKDRGSVSGPEASRQRFRQFQYRDAAGPHEAFGQLWALCCRWLRPEIRLKEQILELLVLEQFLTILPREVQTWVQARHPESGEEAVALVEDWHRETRTAGQSGLELHTEETRPLKTGEEAQSFQLEPVDPWPEGQSQKKGVKNTCPDLPNHLNAEVAPQPLKESAVLTPRVPTLPKMGSVGDWEVTAESQEALGPGKHAEKELCKDPPGDDCGNSVCLGVPVSKPSNTSEKEQGPEFWGLSLINSGKRSTADYSLDNEPAQALTWRDSRAWEEQYQWDVEDMKVSGVHWGYEETKTFLAILSESPFSEKLRTCHQNRQVYRAIAEQLRARGF
notes: range 768-881
binding result: binds
